Reference: publication doi:10.1101/2025.05.22.655611
These are yes or no findings as the source states them, for the method shown. In cells and extracts the contact can be indirect. Here binding means that the protein was enriched with, or labelled near, the bait; the list need not be complete. Where a sequence is shown, tags or fusion partners need not be part of it.

The chains behind the UniProt entries cited, without tags or fusion partners.
UniProt Q99PL5: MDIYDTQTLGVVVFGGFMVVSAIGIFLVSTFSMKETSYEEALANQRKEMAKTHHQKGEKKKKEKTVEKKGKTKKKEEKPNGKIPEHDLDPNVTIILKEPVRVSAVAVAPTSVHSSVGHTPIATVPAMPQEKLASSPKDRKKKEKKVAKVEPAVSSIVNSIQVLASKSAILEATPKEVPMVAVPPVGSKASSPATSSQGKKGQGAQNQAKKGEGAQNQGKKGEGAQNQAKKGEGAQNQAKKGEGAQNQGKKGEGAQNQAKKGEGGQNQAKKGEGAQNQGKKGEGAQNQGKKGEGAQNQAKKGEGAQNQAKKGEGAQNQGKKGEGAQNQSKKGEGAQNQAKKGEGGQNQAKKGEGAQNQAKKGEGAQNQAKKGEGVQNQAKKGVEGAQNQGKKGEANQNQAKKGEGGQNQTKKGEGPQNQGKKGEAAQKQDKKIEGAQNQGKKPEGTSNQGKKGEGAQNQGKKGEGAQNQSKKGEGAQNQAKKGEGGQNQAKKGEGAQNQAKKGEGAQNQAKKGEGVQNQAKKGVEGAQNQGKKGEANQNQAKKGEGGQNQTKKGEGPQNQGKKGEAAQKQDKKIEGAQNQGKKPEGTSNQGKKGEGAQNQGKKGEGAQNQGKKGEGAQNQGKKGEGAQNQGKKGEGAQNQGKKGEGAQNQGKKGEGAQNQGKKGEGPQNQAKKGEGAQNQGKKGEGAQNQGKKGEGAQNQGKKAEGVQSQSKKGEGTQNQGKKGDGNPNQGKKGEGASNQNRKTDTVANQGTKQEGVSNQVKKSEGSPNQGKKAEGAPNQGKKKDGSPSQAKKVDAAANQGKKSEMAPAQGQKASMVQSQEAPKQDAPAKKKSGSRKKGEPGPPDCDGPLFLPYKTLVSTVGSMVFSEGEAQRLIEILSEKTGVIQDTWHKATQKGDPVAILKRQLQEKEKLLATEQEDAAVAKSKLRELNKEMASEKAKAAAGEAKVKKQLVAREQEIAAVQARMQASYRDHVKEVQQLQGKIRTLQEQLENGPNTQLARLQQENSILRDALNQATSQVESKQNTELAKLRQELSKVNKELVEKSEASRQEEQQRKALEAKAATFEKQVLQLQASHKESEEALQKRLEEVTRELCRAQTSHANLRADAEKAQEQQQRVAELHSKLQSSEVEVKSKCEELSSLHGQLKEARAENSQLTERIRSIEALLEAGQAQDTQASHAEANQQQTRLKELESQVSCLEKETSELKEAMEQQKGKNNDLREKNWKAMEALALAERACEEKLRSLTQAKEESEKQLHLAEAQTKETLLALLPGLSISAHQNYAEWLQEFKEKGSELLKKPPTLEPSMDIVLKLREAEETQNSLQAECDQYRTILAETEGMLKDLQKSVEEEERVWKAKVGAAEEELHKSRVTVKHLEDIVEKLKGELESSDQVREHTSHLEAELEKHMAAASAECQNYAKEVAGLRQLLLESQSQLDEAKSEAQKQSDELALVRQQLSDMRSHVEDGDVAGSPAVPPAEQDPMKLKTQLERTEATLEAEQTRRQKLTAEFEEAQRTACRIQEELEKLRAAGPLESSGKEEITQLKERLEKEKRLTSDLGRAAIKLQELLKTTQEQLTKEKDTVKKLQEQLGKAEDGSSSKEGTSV
UniProt Q8CHP5: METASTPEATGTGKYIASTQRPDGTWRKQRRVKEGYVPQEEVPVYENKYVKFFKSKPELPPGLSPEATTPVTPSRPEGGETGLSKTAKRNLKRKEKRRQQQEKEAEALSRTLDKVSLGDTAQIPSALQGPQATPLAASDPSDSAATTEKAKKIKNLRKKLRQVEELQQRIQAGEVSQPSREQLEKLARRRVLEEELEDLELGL
UniProt P52479: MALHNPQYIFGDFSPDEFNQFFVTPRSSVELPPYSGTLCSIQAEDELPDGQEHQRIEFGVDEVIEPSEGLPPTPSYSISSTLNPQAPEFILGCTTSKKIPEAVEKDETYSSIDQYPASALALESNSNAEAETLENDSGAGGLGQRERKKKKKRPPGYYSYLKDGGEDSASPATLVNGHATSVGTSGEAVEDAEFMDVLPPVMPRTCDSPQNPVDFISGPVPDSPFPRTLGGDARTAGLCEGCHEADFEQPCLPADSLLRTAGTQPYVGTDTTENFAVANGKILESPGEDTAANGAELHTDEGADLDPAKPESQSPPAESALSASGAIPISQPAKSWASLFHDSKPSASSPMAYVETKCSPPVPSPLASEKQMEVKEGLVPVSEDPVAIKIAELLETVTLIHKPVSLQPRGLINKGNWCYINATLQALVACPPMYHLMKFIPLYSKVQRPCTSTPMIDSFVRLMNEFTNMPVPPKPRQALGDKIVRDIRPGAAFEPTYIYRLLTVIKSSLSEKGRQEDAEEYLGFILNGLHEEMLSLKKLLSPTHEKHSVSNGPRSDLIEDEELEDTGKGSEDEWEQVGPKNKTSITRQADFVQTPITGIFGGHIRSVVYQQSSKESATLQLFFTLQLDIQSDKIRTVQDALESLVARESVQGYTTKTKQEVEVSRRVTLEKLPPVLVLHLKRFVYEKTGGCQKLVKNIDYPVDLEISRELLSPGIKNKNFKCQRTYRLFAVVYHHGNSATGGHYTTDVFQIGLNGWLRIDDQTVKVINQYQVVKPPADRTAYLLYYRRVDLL

Biological target: T1, V5::TurboID::NES::eIF2A (N-terminal TurboID fusion of mouse eIF2A) (mouse) (UniProt Q8BJW6)
T1 sequence: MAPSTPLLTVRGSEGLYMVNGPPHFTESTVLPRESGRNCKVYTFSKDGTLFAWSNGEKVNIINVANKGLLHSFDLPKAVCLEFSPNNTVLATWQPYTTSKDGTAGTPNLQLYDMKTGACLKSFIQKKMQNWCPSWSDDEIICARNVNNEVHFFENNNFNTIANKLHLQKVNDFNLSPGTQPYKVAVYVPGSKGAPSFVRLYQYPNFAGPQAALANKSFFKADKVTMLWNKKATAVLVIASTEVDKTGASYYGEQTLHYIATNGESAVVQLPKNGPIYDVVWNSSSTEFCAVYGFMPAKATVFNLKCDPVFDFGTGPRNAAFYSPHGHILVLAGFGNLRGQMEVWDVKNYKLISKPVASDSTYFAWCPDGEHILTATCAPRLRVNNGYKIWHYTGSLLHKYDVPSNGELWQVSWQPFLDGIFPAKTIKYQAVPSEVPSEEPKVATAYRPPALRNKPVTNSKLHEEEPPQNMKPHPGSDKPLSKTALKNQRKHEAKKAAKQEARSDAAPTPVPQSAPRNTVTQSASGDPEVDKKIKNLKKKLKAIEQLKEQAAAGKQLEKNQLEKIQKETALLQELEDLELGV
Test: proximity labelling

In the case of “RRBP1 (mouse, endogenous in SCC cells) (from UniProt Q99PL5 1-1605)”, the binding is reported as “binds”.

“PYM1 (mouse, endogenous in SCC cells) (from UniProt Q8CHP5 1-203)” was tested, and the binding was “binds”.

In the case of “USP10 (mouse, endogenous in SCC cells) (from UniProt P52479 1-792) (enzyme)”, the binding is reported as “binds”.

B1: SPATS2 (spermatogenesis-associated serine rich 2; mouse, endogenous in SCC cells) (protein, UniProt Q8K1N4 1-545)
chain: MSRKQSQKDSSGFIFDLQSNTVLAQGGTFENMKEKINAVRAIVPNKSNNEIILVLQHFDNCVDKTVQAFMEGSASEVLKEWIVTGKKKNKKKKSKPKPASEASGSAPDSSKSAPIQEEQPASSEKGSINGYHVNGAINDAESVDSLSEGLETLSIDARELEDPEFAAAETLDRTGSVLENGVSDFEPKSLTAHSISNVQQSRNAAKSLSRTTPGAQVSNLGMENVPLSSTNKKLGSNIEKSVKDLQRCTVSLARYRVVVKEEMDASIKKMKQAFAELQSCLMDREVALLAEMDKVKAEAMEILLSRQKKAELLKKMTDVAVRMSEEQLVELRADIKHFVSERKYDEDLGRVARFTCDVETLKQSIDSFGQVSHPKNSYSTRSRCSLVAPVSLSGPSDGSAASSSPDASVPSLPGANKRNCAPREASAAMTNSSDRPCQAHREVFPGNRRGGQGYRAQSQKTADPSNPGRHDSVGRYRNSSWYSSGPRYQGVPPQAPGNAGERSRPYSAGTNGTGAISEPSPPKPSFKKGLPQRKPRASQAEAANS
With B1 the binding was “binds”.

B2: CAPRIN1 (mouse, endogenous in SCC cells) (protein, UniProt Q60865 1-707)
chain: MPSATSHSGSGSKSSGPPPPSGSSGSEAAAGAAAPASQHPATGTGAVQTEAMKQILGVIDKKLRNLEKKKGKLDDYQERMNKGERLNQDQLDAVSKYQEVTNNLEFAKELQRSFMALSQDIQKTIKKTARREQLMREEAEQKRLKTVLELQYVLDKLGDDDVRTDLKQGLSGVPILSEEELSLLDEFYKLVDPERDMSLRLNEQYEHASIHLWDLLEGKEKPVCGTTYKALKEIVERVFQSNYFDSTHNHQNGLCEEEEAASAPTVEDQVAEAEPEPAEEYTEQSEVESTEYVNRQFMAETQFSSGEKEQVDEWTVETVEVVNSLQQQPQAASPSVPEPHSLTPVAQSDPLVRRQRVQDLMAQMQGPYNFIQDSMLDFENQTLDPAIVSAQPMNPTQNMDMPQLVCPQVHSESRLAQSNQVPVQPEATQVPLVSSTSEGYTASQPLYQPSHATEQRPQKEPMDQIQATISLNTDQTTASSSLPAASQPQVFQAGTSKPLHSSGINVNAAPFQSMQTVFNMNAPVPPANEPETLKQQSQYQATYNQSFSSQPHQVEQTELQQDQLQTVVGTYHGSQDQPHQVPGNHQQPPQQNTGFPRSSQPYYNSRGVSRGGSRGARGLMNGYRGPANGFRGGYDGYRPSFSNTPNSGYSQSQFTAPRDYSGYQRDGYQQNFKRGSGQSGPRGAPRGRGGPPRPNRGMPQMNTQQVN
B2 was tested, and the binding was “binds”.

B3: G3BP2 (mouse, endogenous in SCC cells) (protein, UniProt P97379 1-482)
chain: MVMEKPSPLLVGREFVRQYYTLLNKAPEYLHRFYGRNSSYVHGGVDASGKPQEAVYGQNDIHHKVLSLNFSECHTKIRHVDAHATLSDGVVVQVMGLLSNSGQPERKFMQTFVLAPEGSVPNKFYVHNDMFRYEDEVFGDSEPELDEESEDEVEEEQEDRQPSPEPVQENANSAYYDAHPVTNGIEEPLEESSHEPEPEPESETKTEELKPQVEEKHLEELEEKSATPPPAEPASLPQEPPKAFSWASVTSKNLPPSGTVSSSGIPPHVKAPVSQPRVDAKPEVQSQPPRVREQRPRERPGFPPRGPRPGRGDMEQNDSDNRRIIRYPDSHQLFVGNLPHDIDENELKEFFMSFGNVVELRINTKGVGGKLPNFGFVVFDDSEPVQRILIAKPIMFRGEVRLNVEEKKTRAARERETRGGGDDRRDIRRNDRGPGGPRGIVGGGMMRDRDGRGPPPRGGMTQKLGSGRGTGQMEGRFTGQRR
For B3, the binding was “binds”.

B4: SERBP1 (mouse, endogenous in SCC cells) (protein, UniProt Q9CY58 1-407)
chain: MPGHLQEGFGCVVTNRFDQLFDDESDPFEVLKAAENKKKEAGGGGVGGPGAKSAAQAAAQTNSNAAGKQLRKESQKDRKNPLPPSVGVADKKEETQPPVALKKEGIRRVGRRPDQQLQGDGKLIDRRAERRPPRERRFEKPLEEKGEGGEFSVDRPIIERPIRGRGGLGRGRGGRGRGMGRGDGFDSRGKREFDRHSGSDRSSFSHYSGLKHEDKRGGSGSHNWGTVKDELTESPKYIQKQISYNCSDLDQSNVTEETPEGEEHPVADTENKENEVEEVKEEGPKEMTLDEWKAIQNKDRAKVEFNIRKPNEGADGQWKKGFVLHKSKSEEAHAEDSVMDHHFRKPANDITSQLEINFGDLGRPGRGGRGGRGGRGRGGRPNRGSRTDKSSASAPDVDDPEAFPALA
B4 was tested, and the binding was “binds”.

B5: UBAP2 (mouse, endogenous in SCC cells) (protein, UniProt Q91VX2 1-1132)
chain: MMTSVSNDRCRGAREKPQMPTAHAAQSQKQVVQATAEQMRLAQVIFDKNDSDFEAKVKQLMEVTGKNQDECIVALHDCNGDVNKAINILLEGNSDTTSWETVGGKKKNFGRESSENKENREKRTEREASRGRGTNNRKGRGGNRVREFKGEENGIDCSQGDKPAERGKRARGRGFGRGRGRGTGRFSAQSMGTFNPADYSESMSTDGCGTKLAVWEAAQNGTDEGPEGLAKSHSMSQEPPSKSSYGLKGAWKNSVEEWTTEDWTEDLSETKVFTASSAPAENHVTPGHSIDLVALLHKPAPPTQATEVNSFETSQQQGFGQALVFTNSQHNNQMAPGTANSTSASSYSPQSLSSVLGSGFGELPQSNMVNISNSQILDKLKPPGLSPFPAASSAQQNDTASPPATTAAWDLKPSAPQPSVLSRLDFKSQPEPSPVLSQLSQRQQHQTQAVSVPPPGLESFSSLAKPRESTAGDGPSTVSRLLQLPNMTVENIVSAHQPQPKHIKLPKRRVPPASKVPVSAVEMPGSSDVTGLNVQFGALEFGSEPSLSEFGSAASASENSNQIPISLYPKSLSEPLNASFPMTSAVQSSTYTTSVVTSSTLTSSALSSTSPVTTSSSYDQSSVHTRIAYQSSASPPDSAPGSVANGHGGGRSQHTVDTTSSVPAPKKTDPSALPSVSTLPGPASCTALLPSSAQHTATLPSLTPAAAELSSSPLSQLSSSLSGHQNSMTSAHATRSTSTPHTHASVESTASSAAFSAAATSAPSAPSSGVVLPGSMSTVSSLCLGGTTVSVPSSSTRATALVTSGKAPPNLPQGVPPLLHNQYLVGPGGLLPAYPIYGYDELQMLQSRLPMDYYGIPFAAPTALASRDGNLANNPYSGDVTKFGRGDSASPAPPTTPAQAQQSQSQTHHTAQQPFLNPGLPPGYSYTGLPYYTGVPSAFQYGPTMFVPPTSAKQHGVALSTPPTPFQQASGYGQHAYSTGYDDLTQGTAAGDYTKGGYGGSSQAPNKSTGSGPGKGVSVSSGTGLPDMTGSVYNKTQTFDKQGFHAGTPPPFSLPSALGSTGPLAPAAAPGYAPAPFLHIMPAHQQPHSQLLHHHLQQDAPSGSGQRSQPSSLQPKSQASKPTYGSAPYWTN
For B5, the binding was “binds”.

B6: UBAP2L (mouse, endogenous in SCC cells) (protein, UniProt Q80X50 1-1107)
chain: MMTSVGTNRARGNWEQPQNQNQTQHKQRPQATAEQIRLAQMISDHNDADFEEKVKQLIDITGKNQDECVIALHDCNGDVNRAINVLLEGNPDTHSWEMVGKKKGVSGQKDGGQTESNEEGKENRDRDRDYSRRRGGPPRRGRGASRGREFRGQENGLDGTKSGGPSGRGTDRGRRGRGRGRGSSGRRGGRFSAQGMGTFNPADYAEPANTDDNYGNSSGNTWNNTGHFEPDDGTRLDFIGVEGSNYPRKFETAPGAWRTATEEWGTEDWNEDLSETKIFTASNVSSVPLPAENVTITAGQRIDLAVLLGKTPSSMENDSSNLDPSQAPSLAQPLVFSNSKQNAISQPASGSTFSHHSMVSMLGKGFGDVGEAKGGSTTGSQFLEQFKTAQALAQLAAQHSQSGSTTTSSWDMGSTTQSPSLVQYDLKSANDSTVHSPFTKRQAFTPSSTMMEVFLQEKPPAVATSTAAPPPPSSPLPSKSTSAPQMSPGSSDNQSSSPQPAQQKLKQQKKKTSLTSKIPALAVEMPGSADISGLNLQFGALQFGSEPVLSDYESTPTTSASSSQAPSSLYTSTASESSSTVSSNQSQESGYQSGPIQSTTYTSQNNAQGPLYEQRSTQTRRYPSSISSSPQKDLTQAKNGFSSVQATQLQTTQSVEGATGSAVKSESPSTSSIPSLNETVPAASLLTTANQHSSSLSGLSHTEEIPNTTTTQHSSALSTQQNTLSSSTSSGRTSTSTLLHTSVESEANLHSSSSTFSTTSSTVSAPPPVVSVSSSLNSGSSLGLSLGSNSTVTASTRSSVATTSGKAPPNLPPGVPPLLPNPYIMAPGLLHAYPPQVYGYDDLQMLQTRFPLDYYSIPFPTPTTPLTGRDGSLASNPYSGDLTKFGRGDASSPAPATTLAQPQQNQTQTHHTTQQTFLNPALPPGYSYTSLPYYTGVPGLPSTFQYGPAVFPVAPTSSKQHGVNVSVNASATPFQQPSGYGSHGYNTGVSVTSSNTGVPDISGSVYSKTQQSFEKQGFHSGTPAASFNLPSALGSGGPINPATAAAYPPAPFMHILTPHQQPHSQILHHHLQQDGQTGSGQRSQTSSIPQKPQTNKSAYNSYSWGAN
B6 was tested, and the binding was “binds”.

B7: MTDH (metadherin; mouse, endogenous in SCC cells) (protein, UniProt Q80WJ7 1-579)
chain: MAARSWQDELAQQAEEGSARLRELLSVGLGFLRTELGLDLGLEPKRYPGWVILVGTGALGLLLLFLLGYGWAAACAGARKKRRSPPRKREEAAPPTPAPDDLAQLKNLRSEEQKKKNRKKLPEKPKPNGRTVEVPEDEVVRNPRSITAKQAPETDKKNEKSKKNKKKSKSDAKAVQNSSRHDGKEVDEGAWETKISHREKRQQRKRDKVLTDSGSLDSTIPGIENIITVTTEQLTTASFPVGSKKNKGDSHLNVQVSNFKSGKGDSTLQVSSRLNENLTVNGGGWSEKSVKLSSQLSEEKWNSVPPASAGKRKTEPSAWTQDTGDTNANGKDWGRNWSDRSIFSGIGSTAEPVSQSTTSDYQWDVSRNQPYIDDEWSGLNGLSSADPSSDWNAPAEEWGNWVDEDRASLLKSQEPISNDQKVSDDDKEKGEGALPTGKSKKKKKKKKKQGEDNSHTQDTEDLEKDTREELPVNTSKARPKQEKACSLKTMSTSDPAEVLIKNSQPVKTLPPAISAEPSITLSKGDSDNSSSQVPPMLQDTDKPKSNAKQNSVPPSQTKSETNWESPKQIKKKKKARRET
With B7 the binding was “binds”.
